{"source": "PubChem BioAssay AID1671195 (Yale University, 2021)", "test": "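Regulators of LDL receptor activity judged by labelled LDL uptake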 (primary screen)", "system": "human Huh7 hepatoma cells", "reagents": "siRNA pool against human genes, 18 nM", "timing": "about 2 to 2.5 days of knockdown, then 8 h LDL uptake", "treatment": "DiI-labelled LDL at 30 µg/ml for 8 h, in lipoprotein-deficient serum medium", "read-out": "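Fluorescent LDL signal imaged in cells, scaled to the plate median, robust z-score for each replicate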", "direction": "robust z-score: higher = more LDL uptake after knockdown", "active means": "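Active when two or more replicates show a robust z-score above 2 or below -2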", "note": "In all, the deposit lists about 22,000 reagents; shown is a random part of them. About 1,510 of them (6.9%) were called active. 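Active includes knockdowns raising or lowering LDL uptake; positive z-scores mean more uptake, negative mean less.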 Entries without a mark were called inactive."}
{"target":"MAP2K7 (GeneID 5609)","robust z-score, replicate 1":-0.149,"robust z-score, replicate 2":-1.15,"robust z-score, replicate 3":-0.779}
{"target":"TTC7B (GeneID 145567)","robust z-score, replicate 1":0.298,"robust z-score, replicate 2":0.512,"robust z-score, replicate 3":0.433}
{"target":"H3C1 (GeneID 8350)","robust z-score, replicate 1":0.0669,"robust z-score, replicate 2":-0.63,"robust z-score, replicate 3":0.295}
{"target":"PLAAT3 (GeneID 11145)","robust z-score, replicate 1":0.324,"robust z-score, replicate 2":0.21,"robust z-score, replicate 3":0.53}
{"target":"SH3TC2 (GeneID 79628)","robust z-score, replicate 1":0.221,"robust z-score, replicate 2":0.645,"robust z-score, replicate 3":-0.363}
{"target":"LOC440455 (retired record) (GeneID 440455)","robust z-score, replicate 1":0.488,"robust z-score, replicate 2":-0.44,"robust z-score, replicate 3":0.111}
{"target":"LOC339351 (retired record) (GeneID 339351)","robust z-score, replicate 1":-1.04,"robust z-score, replicate 2":-1.18,"robust z-score, replicate 3":-1.03}
{"target":"GPR137 (GeneID 56834)","robust z-score, replicate 1":0.1,"robust z-score, replicate 2":-0.12,"robust z-score, replicate 3":0.869}
{"target":"LHPP (GeneID 64077)","robust z-score, replicate 1":-0.159,"robust z-score, replicate 2":-0.487,"robust z-score, replicate 3":-0.0997}
{"target":"CLEC2L (GeneID 154790)","robust z-score, replicate 1":-0.709,"robust z-score, replicate 2":-0.212,"robust z-score, replicate 3":0.075}
{"target":"CSPG5 (GeneID 10675)","robust z-score, replicate 1":0.364,"robust z-score, replicate 2":-0.769,"robust z-score, replicate 3":1.04}
{"target":"DHX9 (GeneID 1660)","robust z-score, replicate 1":1.23,"robust z-score, replicate 2":1.31,"robust z-score, replicate 3":2.34}
{"target":"GHRHR (GeneID 2692)","robust z-score, replicate 1":-0.3,"robust z-score, replicate 2":1.31,"robust z-score, replicate 3":0.0604}
{"target":"SCN2A (GeneID 6326)","robust z-score, replicate 1":-0.902,"robust z-score, replicate 2":-1.1,"robust z-score, replicate 3":-0.552}
{"target":"LIAS (GeneID 11019)","robust z-score, replicate 1":0.878,"robust z-score, replicate 2":0.266,"robust z-score, replicate 3":0.826}
{"target":"FAT2 (GeneID 2196)","robust z-score, replicate 1":-0.598,"robust z-score, replicate 2":-0.329,"robust z-score, replicate 3":-0.742}

Copied from above for reference:
{"target":"GPR137 (GeneID 56834)","robust z-score, replicate 1":0.1,"robust z-score, replicate 2":-0.12,"robust z-score, replicate 3":0.869}
{"target":"LHPP (GeneID 64077)","robust z-score, replicate 1":-0.159,"robust z-score, replicate 2":-0.487,"robust z-score, replicate 3":-0.0997}
